Data as given in article PMC8067559.
Results are given in words; binding and its absence hold for the method and conditions named. In cells and extracts the contact can be indirect. Binding can be weak; no strength is given.

Target: leucyl-tRNA synthetase 1 precursor with a hexa-histidine tag (pLeuRS1-(His)6) (Arabidopsis thaliana)
Test: pull-down; His6-tagged precursor added to isolated Arabidopsis mitochondria, import at 8 °C to arrest translocation intermediates; mitochondria ruptured, OM–IM fraction from 20–38% sucrose gradient solubilised with maltoside; Ni-NTA agarose; co-purifying bands by SDS-PAGE, Coomassie or silver staining and protein sequencing; only the target purified

B1: TIM17-2 (protein, UniProt Q9SP35 1-243)
chain: MGTPETSREPCPDRILDDIGGAFGMGAVGGSAFHFIKGTYNSPKGSRFVGGTQSVSMNAPRTGGSFAVWGGLFSTFDCTMVYLRQKEDPWNSIIAGAATGGFLSMRQGAGAASRSAIFGGVLLALIEGAGIMLNKVLAQPQNMMMEDPGMQGMPGMQGMQGMPGMPGMQGMPGMQGMQMGQMQSQAQIRSESQNQNTASSSSSSSWFGGLFDKKKEEVQPGSESKTEVLESFDAPPVPSFEFK
  binding: binds
